Where two headings read alike, the source gives them in different places. Results are given in words; binding and its absence hold for the method and conditions named. In cells and extracts the contact can be indirect. Here binding means that the protein was enriched with, or labelled near, the bait; the list need not be complete. For some of these results: Sequences can lack the tags named with a protein.

Amino acid sequences for entries named in this document (tags omitted). Residues count along the entry.
UniProt P56181, residues 35-108: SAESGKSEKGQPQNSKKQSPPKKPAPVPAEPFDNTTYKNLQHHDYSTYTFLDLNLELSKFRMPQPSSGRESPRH
UniProt P00414: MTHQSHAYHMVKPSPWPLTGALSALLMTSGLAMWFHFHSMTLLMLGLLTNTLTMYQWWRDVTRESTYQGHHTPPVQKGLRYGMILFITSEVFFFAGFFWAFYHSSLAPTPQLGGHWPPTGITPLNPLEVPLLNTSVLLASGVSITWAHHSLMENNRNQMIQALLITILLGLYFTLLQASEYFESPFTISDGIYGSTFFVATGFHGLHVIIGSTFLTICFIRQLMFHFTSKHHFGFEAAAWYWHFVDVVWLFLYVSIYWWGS
UniProt Q9Y241: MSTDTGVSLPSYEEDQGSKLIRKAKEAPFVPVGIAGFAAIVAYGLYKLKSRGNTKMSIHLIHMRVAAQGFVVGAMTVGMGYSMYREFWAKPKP
UniProt Q9P032: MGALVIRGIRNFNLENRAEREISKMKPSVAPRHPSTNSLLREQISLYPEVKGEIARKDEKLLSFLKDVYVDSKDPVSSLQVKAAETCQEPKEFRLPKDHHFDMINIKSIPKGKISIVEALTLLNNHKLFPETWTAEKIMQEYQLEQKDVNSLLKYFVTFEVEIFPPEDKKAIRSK

Common to all, as to assay: affinity purification with mass spectrometry
The target in assay [1] is FLAG-tagged complex I subunit NDUFV3 (human) (UniProt P56181).
In assay [2] the target is T1, HIGD2A with a C-terminal FLAG tag (human) (UniProt Q9BW72).
T1 sequence: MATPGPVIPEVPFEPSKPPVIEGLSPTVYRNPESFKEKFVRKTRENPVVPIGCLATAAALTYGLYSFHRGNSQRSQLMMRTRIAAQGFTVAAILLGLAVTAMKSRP

Assay [3] concerns the target FLAG-tagged complex I subunit NDUFV3 (human) (UniProt P56181). This is another data set of the same source.
Assay [4] addresses T1, HIGD2A with a C-terminal FLAG tag (human). The source holds these as a separate data set.

With “COX3 (MT-CO3), mtDNA-encoded subunit of complex IV (from UniProt P00414 1-261)”, the binding result in assay [1] was “binds”. As to HIGD1A (from UniProt Q9Y241 1-93), in assay [2], the binding result is “binds”.

As to “NDUFAF2, complex I assembly factor (human (endogenous in HEK293T))”, the binding entry in assay [2] is on record as “binds”. As for “NDUFAF4, complex I assembly factor (from UniProt Q9P032 1-175)”, the binding result in assay [2] is recorded as “binds”.

B1: COA3, complex IV assembly factor (protein, UniProt Q9Y2R0 1-106)
chain: MASSGAGDPLDSKRGEAPFAQRIDPTREKLTPEQLHSMRQAELAQWQKVLPRRRTRNIVTGLGIGALVLAIYGYTFYSISQERFLDELEDEAKAARARALARASGS
As for B1, the binding entry in assay [3] and in assay [4] was “binds” throughout.

B2: SCO1, complex IV assembly factor (protein, UniProt O75880 68-301)
chain: STARPPPPWSQKGPGDSTRPSKPGPVSWKSLAITFAIGGALLAGMKHVKKEKAEKLEKERQRHIGKPLLGGPFSLTTHTGERKTDKDYLGQWLLIYFGFTHCPDVCPEELEKMIQVVDEIDSITTLPDLTPLFISIDPERDTKEAIANYVKEFSPKLVGLTGTREEVDQVARAYRVYYSPGPKDEDEDYIVDHTIIMYLIGPDGEFLDYFGQNKRKGEIAASIATHMRPYRKKS
In the case of B2, the binding result in assay [4] is recorded as “binds”.

(Values after publication doi:10.1101/787721.)
